{"source": "patent EP2992880A1", "about": "“Use of heme oxygenase 1 inducers and cannabinoid 2 receptor or delta-opioid receptor agonists in inflammatory pain” (Fundació Institut de Recerca de l'Hospital de la Santa Creu …, priority 2014, dated 2016)", "key": {"[1]": {"test_system": "CFA-injected mice", "experiment": "von Frey filaments test (mechanical allodynia) in CFA-induced chronic inflammatory pain", "type": "in vivo, male C57BL/6 mice", "conditions": "subplantar administration; DPDPE 50-150 µg, JWH-015 30-300 µg (Fig. 1A, 2A)", "protocol": "(§1) The experiments were performed in male C57BL/6 mice acquired from Harlan Laboratories (Barcelona, Spain). All mice weighing 21 to 25 g were housed under 12-h/12-h light/ dark conditions in a room with controlled temperature (22° C) and humidity (66%). Animals had free access to food and water and were used after a minimum of 7 days acclimatization to the housing conditions. All experiments were performed according with the Guide for the Care and Use of Laboratory Animals as adopted and promulgated by the U.S. National Institutes of Health and approved by the local Committee of Animal Use and Care of the Autonomous University of Barcelona. All efforts were made to minimize animal suffering and to reduce the number of animals used.\n(§2) Chronic inflammatory pain was induced by the subplantar injection of 30 µl of CFA (Sigma) into the right hind paw under brief anesthetic conditions with isoflurane according to previous works (Leánez et al., Eur J Pharmacol, 2009, 602:41-49; Hervera et al., Naunyn Schmiedebergs Arch Pharmacol, 2009, 380:345-352). All experiments were performed at 10 days after CFA injection. […] The development of mechanical allodynia and thermal hyperalgesia was evaluated by using the von Frey filaments and plantar tests, respectively. […]\nMechanical allodynia was quantified by measuring the hind paw withdrawal response to von Frey filament stimulation. […]"}, "[2]": {"test_system": "CFA-injected mice", "experiment": "plantar test (thermal hyperalgesia) in CFA-induced chronic inflammatory pain", "type": "in vivo, male C57BL/6 mice", "conditions": "subplantar administration; DPDPE 50-150 µg, JWH-015 30-300 µg (Fig. 1B, 2B)", "protocol": "as §1, with “All efforts were made to minimize animal suffering and to reduce the number of animals used.” left out\nas §2, with “380:345-352).” for “380:345-352). All experiments were performed at 10 days after CFA injection.”\nThermal hyperalgesia was assessed as previously reported by Hargreaves et al. (Pain, 1988, 32:77-88). Paw withdrawal latency in response to radiant heat was measured using the plantar test apparatus (Ugo Basile, Varese, Italy). […]"}}, "note": "For at least one compound, name, drawing or mass did not settle the structure.", "data": [{"molecule": "CCCn1c(C)c(C(=O)c2cccc3ccccc23)c2ccccc21", "note": "[JWH-015, (2-Methyl-1-propyl-1H-indol-3-yl)-1-naphthalenylmethanone]", "values": [{"measurement": "mechanical allodynia induced by peripheral inflammation", "setting": "[1]", "result": "dose-dependently inhibited"}, {"measurement": "thermal hyperalgesia induced by peripheral inflammation", "setting": "[2]", "result": "dose-dependently inhibited"}]}]}
